{"sequences": {"note": "Protein sequences, listed by entry. Tags and fused reporters are not part of them.", "UniProt Q9BVC4": "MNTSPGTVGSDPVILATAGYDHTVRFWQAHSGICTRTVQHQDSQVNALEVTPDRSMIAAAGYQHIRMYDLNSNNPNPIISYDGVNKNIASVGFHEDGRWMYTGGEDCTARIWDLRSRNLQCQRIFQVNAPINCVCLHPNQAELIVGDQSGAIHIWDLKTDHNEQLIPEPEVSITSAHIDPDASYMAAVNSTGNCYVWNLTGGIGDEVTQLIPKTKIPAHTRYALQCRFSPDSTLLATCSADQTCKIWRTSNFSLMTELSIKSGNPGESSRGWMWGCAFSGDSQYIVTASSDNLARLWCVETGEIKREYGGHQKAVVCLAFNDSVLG", "UniProt Q8K4Q0": "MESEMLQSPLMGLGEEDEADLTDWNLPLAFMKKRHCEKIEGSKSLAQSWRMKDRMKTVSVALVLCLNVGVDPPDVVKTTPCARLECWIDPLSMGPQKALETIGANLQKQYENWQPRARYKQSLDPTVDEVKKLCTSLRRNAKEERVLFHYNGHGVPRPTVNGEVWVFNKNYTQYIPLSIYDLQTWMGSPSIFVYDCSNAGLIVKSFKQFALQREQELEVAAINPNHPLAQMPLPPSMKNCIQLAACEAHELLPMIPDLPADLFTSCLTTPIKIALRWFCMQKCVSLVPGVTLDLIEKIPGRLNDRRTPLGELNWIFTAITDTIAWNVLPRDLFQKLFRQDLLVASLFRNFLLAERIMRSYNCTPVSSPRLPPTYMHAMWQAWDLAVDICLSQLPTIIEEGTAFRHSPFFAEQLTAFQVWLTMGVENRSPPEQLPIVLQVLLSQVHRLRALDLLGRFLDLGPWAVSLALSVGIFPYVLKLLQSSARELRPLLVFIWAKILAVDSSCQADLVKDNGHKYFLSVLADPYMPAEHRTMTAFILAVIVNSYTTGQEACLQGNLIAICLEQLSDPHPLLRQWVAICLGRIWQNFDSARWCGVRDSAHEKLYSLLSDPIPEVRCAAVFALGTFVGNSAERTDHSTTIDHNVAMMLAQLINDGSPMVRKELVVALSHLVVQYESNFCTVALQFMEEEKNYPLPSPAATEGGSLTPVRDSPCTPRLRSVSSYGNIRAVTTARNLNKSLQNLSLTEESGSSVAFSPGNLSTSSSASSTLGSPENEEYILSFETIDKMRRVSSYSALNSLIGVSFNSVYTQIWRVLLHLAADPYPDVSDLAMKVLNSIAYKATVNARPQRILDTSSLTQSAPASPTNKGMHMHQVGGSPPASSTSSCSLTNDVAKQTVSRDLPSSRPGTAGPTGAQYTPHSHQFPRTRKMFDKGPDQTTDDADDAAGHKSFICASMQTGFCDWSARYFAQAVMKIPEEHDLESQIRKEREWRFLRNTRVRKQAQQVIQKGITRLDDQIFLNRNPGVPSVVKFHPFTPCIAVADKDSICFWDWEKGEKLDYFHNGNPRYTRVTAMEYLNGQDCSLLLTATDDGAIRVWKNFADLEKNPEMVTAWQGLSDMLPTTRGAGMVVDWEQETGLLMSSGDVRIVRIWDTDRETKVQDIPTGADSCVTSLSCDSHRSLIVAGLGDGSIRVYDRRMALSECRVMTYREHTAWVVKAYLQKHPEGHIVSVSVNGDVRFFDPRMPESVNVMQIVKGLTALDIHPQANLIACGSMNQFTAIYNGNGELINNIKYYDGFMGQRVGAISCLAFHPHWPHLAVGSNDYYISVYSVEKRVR"}, "source": "paper PMC7552405", "target": "EGFP-mLST8 (UniProt Q9BVC4)", "assay": "co-IP; EGFP or EGFP-mLST8 precipitated with GFP-Trap beads from lysates (CHAPS buffer: 40 mM HEPES pH 7.5, 120 mM NaCl, 0.3% CHAPS) of stably transduced Ctsd+/+ and Ctsd-/- PyMT cells; co-precipitated proteins detected by Western blot", "note": "No constants are given. Whether binding was seen depends on the method and setting. In cells and extracts the contact can be indirect. Some results given as binding are weak or reduced against the parent protein; the word gives no strength.", "data": [{"substance": "Raptor (from UniProt Q8K4Q0 1-1335)", "values": [{"measurement": "binding", "result": "binds"}]}]}
